Assay results as given in paper PMC7238515.
These are yes or no findings as the source states them, for the method shown. Binding seen in cells or lysates may run through a third protein. Some binding calls cover weakened binding; strength is not graded here.

Amino acid sequences for entries named in this document (tags omitted). A change or cut given only in a name is not applied to a line headed by its entry. Chains listed by the source or under a name are the forms on record and can include a tag or linker.
UniProt P06401: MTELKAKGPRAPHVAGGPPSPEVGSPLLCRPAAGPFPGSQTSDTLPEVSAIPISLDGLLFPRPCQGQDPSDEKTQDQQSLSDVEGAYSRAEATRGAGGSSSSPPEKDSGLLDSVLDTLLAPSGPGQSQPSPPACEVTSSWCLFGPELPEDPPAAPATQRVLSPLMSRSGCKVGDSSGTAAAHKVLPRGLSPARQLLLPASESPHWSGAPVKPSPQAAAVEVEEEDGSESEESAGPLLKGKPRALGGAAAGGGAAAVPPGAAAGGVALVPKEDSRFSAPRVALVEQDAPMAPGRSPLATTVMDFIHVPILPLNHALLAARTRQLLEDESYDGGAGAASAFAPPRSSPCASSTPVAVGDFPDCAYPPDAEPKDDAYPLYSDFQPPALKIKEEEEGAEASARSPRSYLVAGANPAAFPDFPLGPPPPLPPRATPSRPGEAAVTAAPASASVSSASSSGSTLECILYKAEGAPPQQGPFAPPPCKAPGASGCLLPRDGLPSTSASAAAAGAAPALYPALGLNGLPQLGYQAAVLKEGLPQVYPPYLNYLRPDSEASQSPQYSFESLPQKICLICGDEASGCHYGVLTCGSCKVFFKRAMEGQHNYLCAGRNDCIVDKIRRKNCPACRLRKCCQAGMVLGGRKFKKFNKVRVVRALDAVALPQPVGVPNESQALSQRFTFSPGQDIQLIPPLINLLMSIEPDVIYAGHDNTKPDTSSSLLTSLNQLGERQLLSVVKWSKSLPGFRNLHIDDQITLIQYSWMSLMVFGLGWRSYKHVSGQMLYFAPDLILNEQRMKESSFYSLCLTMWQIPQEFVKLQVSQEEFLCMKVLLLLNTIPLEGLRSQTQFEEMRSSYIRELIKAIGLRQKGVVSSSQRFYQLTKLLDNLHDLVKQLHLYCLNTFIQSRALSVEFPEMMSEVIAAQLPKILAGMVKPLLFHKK
endogenous ERα-36 in T47D cells (P03372-4, form named): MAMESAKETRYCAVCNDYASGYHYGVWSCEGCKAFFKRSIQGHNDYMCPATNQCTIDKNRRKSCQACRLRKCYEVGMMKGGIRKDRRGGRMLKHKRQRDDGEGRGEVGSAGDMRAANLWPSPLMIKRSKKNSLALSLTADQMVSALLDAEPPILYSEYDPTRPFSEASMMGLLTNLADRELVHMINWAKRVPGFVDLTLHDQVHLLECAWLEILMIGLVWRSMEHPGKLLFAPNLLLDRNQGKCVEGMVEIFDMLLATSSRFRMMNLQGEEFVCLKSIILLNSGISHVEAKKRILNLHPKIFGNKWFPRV

Biological target: endogenous PR (progesterone receptor) in T47D cells (human (endogenous in T47D)) (UniProt P06401)
Assay: proximity ligation; endogenous proteins in methanol-fixed T47D cells, anti-PR and anti-ERα-36 antibodies; control siRNA or siRNA against PR; 10 nM R5020 for the indicated times

binding: binds
Substance: endogenous ERα-36 in T47D cells (from UniProt P03372-4 1-310)
